Laboratory results taken from patent US20090099231A1, “3-Sulfonylamino-Pyrrolidine-2-One Derivatives as Factor Xa Inhibitors” (priority 2005, published 2009).
At least one compound was matched to its structure with a doubt left.

Protein sequences, listed by entry. Tags and fused reporters are not part of them. Residues count along the entry.
UniProt P00742, 41-179 partner limits assumed: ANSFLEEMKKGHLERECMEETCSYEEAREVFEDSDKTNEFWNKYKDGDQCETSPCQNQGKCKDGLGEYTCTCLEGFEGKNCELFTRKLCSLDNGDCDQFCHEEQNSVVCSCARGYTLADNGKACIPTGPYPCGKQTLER
UniProt P00742, 235-488 limits assumed: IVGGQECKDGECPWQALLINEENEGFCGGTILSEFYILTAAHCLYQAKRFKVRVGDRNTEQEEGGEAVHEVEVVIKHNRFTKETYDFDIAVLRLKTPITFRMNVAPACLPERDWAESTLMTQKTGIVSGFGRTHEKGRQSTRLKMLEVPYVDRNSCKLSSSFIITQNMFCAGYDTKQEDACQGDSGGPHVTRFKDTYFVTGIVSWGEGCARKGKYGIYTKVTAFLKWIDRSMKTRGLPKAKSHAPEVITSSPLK

Biological target: human Factor Xa (Homo sapiens, UniProt P00742)
Experiment: In vitro assay for inhibition of Factor Xa (fluorogenic assay, Rhodamine 110 bis-Cbz-glycylglycyl-L-arginine amide substrate)
Assay type: biochemical
Conditions: human Factor Xa 0.0003 U.ml-1, substrate 10 μM, 15 min preincubation, room temperature, pH 7.4
Method: Compounds of the present invention were tested for their Factor Xa inhibitory activity as determined in vitro by their ability to inhibit human Factor Xa in a fluorogenic assay, using Rhodamine 110, bis-Cbz-glycylglycyl-L-arginine amide as the fluorogenic substrate. Compounds were diluted from a 10 mM stock solution in dimethylsulfoxide at appropriate concentrations. Assay was performed at room temperature using buffer consisting of: 50 mM Tris-HCl, 150 mM NaCl, 5 mM CaCl2, pH 7.4 containing human Factor Xa (final concentration of 0.0003 U.ml-1). Compound and enzyme were preincubated for 15 min prior to addition of the substrate (final concentration of 10 μM). The reaction was stopped after 3 hrs with the addition of H-D-Phe-Pro-Arg-Chloromethylketone. An LJL-Analyst fluorimeter was used to monitor fluorescence with 485 nm excitation/535 nm emission. To obtain IC50 values the data were analysed using ActivityBase® and XLfit®.
Ki=IC50/(1+[Substrate]/Km)
The Ki value for the above assay can be obtained by dividing the IC50 value by 1.6.

Cl.O=C1[C@@H](NS(=O)(=O)/C=C/c2ccc(Cl)s2)CCN1c1nc2c(s1)CNCC2 [Example 35, (E)-2-(5-Chloro-2-thienyl)-N-[(3S)-2-oxo-1-(4,5,6,7-tetrahydro[1,3]thiazolo[5,4-c]pyridin-2-yl)-3-pyrrolidinyl]ethenesulfonamide hydrochloride]
Factor Xa inhibitory activity: exhibit Factor Xa inhibitory activity
